Laboratory results: PubChem BioAssay AID504804 (Drosophila RNAi Screening Center, 2011)
Aim: 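Knock-downs shielding fly cells from apoptosis caused by DNA damage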 (primary screen). Cells: Drosophila Kc cells. Knock-down reagent: long dsRNA against Drosophila genes, 0.5 µg dsRNA per well. Time to read-out: 96 h (48 h knock-down, then 48 h drug). Treatment: doxorubicin 5 µg/ml for 48 h, added 48 h after dsRNA. Measured: 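Viability measured as cellular ATP by luminescence after 48 h knock-down then 48 h doxorubicin at 5 µg/ml; unnormalised plate counts for each replicate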. Direction: raw ATP luminescence: higher = more viable cells, protection from doxorubicin. Active means: 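z-score of 2 or more over plate mean in both duplicates, retained only when retests and separate dsRNAs confirm the protection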.
In all, the deposit lists about 19,000 reagents; below is a random part of those with a known target gene and a result. In the full data, 47 (0.25%) were called active. 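Signals are raw, not normalised; exact z-scores behind calls not deposited; actives needed confirmation, so some wells reaching 2 SD are inactive.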 A number with no mark means an inactive call.

With knock-down of tst (GeneID 42813) [DRSC14212] the results were raw ATP luminescence, replicate 1 = 31007; raw ATP luminescence, replicate 2 = 29087. For CG12842 (retired record) (GeneID 35619) [DRSC06188], the values are raw ATP luminescence, replicate 1 = 43143; raw ATP luminescence, replicate 2 = 78860. After knock-down of CG15767 (GeneID 31508) [DRSC18073], the screen gave raw ATP luminescence, replicate 1 = 39550; raw ATP luminescence, replicate 2 = 51500. Depletion of Apl (GeneID 59216) [DRSC10350] resulted in: raw ATP luminescence, replicate 1 = 86913; raw ATP luminescence, replicate 2 = 59203. With knock-down of boil (GeneID 31416) [DRSC17872], the record shows raw ATP luminescence, replicate 1 = 52460; raw ATP luminescence, replicate 2 = 64130. For Ir94e (GeneID 42765) [DRSC15229] the deposit lists raw ATP luminescence, replicate 1 = 69440; raw ATP luminescence, replicate 2 = 72480.

With knock-down of CG6974 (GeneID 41815) [DRSC16160], the screen gave raw ATP luminescence, replicate 1 = 62360; raw ATP luminescence, replicate 2 = 75370. Knock-down of Ugt37A1 (GeneID 35307) [DRSC02114] gave: raw ATP luminescence, replicate 1 = 58993; raw ATP luminescence, replicate 2 = 47787. Against CG3494 (GeneID 37903) [DRSC04375], the entry reads raw ATP luminescence, replicate 1 = 42963; raw ATP luminescence, replicate 2 = 56440. Silencing of CG32628 (retired record) (GeneID 318129) [DRSC19405] gave: raw ATP luminescence, replicate 1 = 2.59e5; raw ATP luminescence, replicate 2 = 2.22e5. Against CG8160 (GeneID 36701) [DRSC07086] the deposit lists raw ATP luminescence, replicate 1 = 2.28e5; raw ATP luminescence, replicate 2 = 2.20e5. Knock-down of yellow-h (GeneID 43779) [DRSC17141] came out at: raw ATP luminescence, replicate 1 = 50040; raw ATP luminescence, replicate 2 = 64720.

Depletion of D19B (GeneID 38717) [DRSC11134] came out at: raw ATP luminescence, replicate 1 = 93500; raw ATP luminescence, replicate 2 = 83603. CG11052 (GeneID 49997) [DRSC14288] showed raw ATP luminescence, replicate 1 = 58460; raw ATP luminescence, replicate 2 = 57637. With knock-down of CG11373 (GeneID 50152) [DRSC12170], the screen gave raw ATP luminescence, replicate 1 = 49813; raw ATP luminescence, replicate 2 = 60243. With knock-down of CG5111 (GeneID 43085) [DRSC15717] the results were raw ATP luminescence, replicate 1 = 56950; raw ATP luminescence, replicate 2 = 63600. Silencing of CG5850 (GeneID 34327) [DRSC02905] came out at: raw ATP luminescence, replicate 1 = 82597; raw ATP luminescence, replicate 2 = 60437. Gdap2 (GeneID 59173) [DRSC06789] gave raw ATP luminescence, replicate 1 = 34617; raw ATP luminescence, replicate 2 = 71110.

With knock-down of Gdap2 (GeneID 59173) [DRSC06790], the record shows raw ATP luminescence, replicate 1 = 41660; raw ATP luminescence, replicate 2 = 76800.

Reformatted: results already given
Target gene	amplicon	raw ATP luminescence, replicate 1	raw ATP luminescence, replicate 2
CG15767 (GeneID 31508)	DRSC18073	39550	51500
Apl (GeneID 59216)	DRSC10350	86913	59203
